Data source: PubChem BioAssay AID1259308 (NCATS, 2017)
The whole screen tested about 59,000 reagents; shown is a part drawn at random. About 1,510 of them (2.6%) were called active. 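Calls use total luciferase alone and ignore viability, so some active siRNAs may act by altering cell number.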 Reagents against one gene are numbered here. Not all columns of the deposit are shown.

- Aim: 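Genes whose loss raises luciferase production in HEK293 cells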 (primary screen)
- Cells: human HEK293 embryonic kidney cells stably expressing firefly luciferase (HEK-CMV-Luc2-Hygro)
- Reagents: single siRNA against human genes, 0.8 pmol siRNA per well
- Time to read-out: 72 h
- Detection: 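Luciferase light (ONE-Glo) measured on one replicate plate set and viability (CellTiter-Glo) on the other, scaled to a negative control siRNA, with robust z-scores and luciferase per cell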
- Direction: total luciferase, z-score: higher = more reporter protein produced
- Hit rule: 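An siRNA counts as active if its total luciferase robust z-score exceeds 3; genes with two or more such siRNAs out of three were retested with fresh siRNAs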
- Meaning of the calls: active = raised luciferase; inactive = no rise

Which result is listed for FBF1 #1?
total luciferase, z-score: -0.296; outcome: inactive

Which result is listed for FBF1 #2?
total luciferase, z-score: -0.126; outcome: inactive

For FBF1 #3, how do the results read?
total luciferase, z-score: 2.21; outcome: inactive

With FICD #1, what was measured?
total luciferase, z-score: -1.19; outcome: inactive

With FICD #2, how do the results read?
total luciferase, z-score: -0.396; outcome: inactive

Which result is listed for FICD #3?
total luciferase, z-score: -0.0868; outcome: inactive

How did the screen score BLOC1S5 #1?
total luciferase, z-score: 0.725; outcome: inactive

With BLOC1S5 #2, what does the deposit list?
total luciferase, z-score: 2.3; outcome: inactive

For BLOC1S5 #3, what was measured?
total luciferase, z-score: -0.925; outcome: inactive

Which result is listed for SELENOM #1?
total luciferase, z-score: -0.987; outcome: inactive

For SELENOM #2, what was measured?
total luciferase, z-score: -0.591; outcome: inactive

For SELENOM #3, what does the deposit list?
total luciferase, z-score: -0.0683; outcome: inactive

For ROCK1 #1, what does the deposit list?
total luciferase, z-score: -0.502; outcome: inactive

For ROCK1 #2, how do the results read?
total luciferase, z-score: 0.0902; outcome: inactive

With ROCK1 #3, what does the deposit list?
total luciferase, z-score: -0.795; outcome: inactive

For KLC2 #1, how do the results read?
total luciferase, z-score: 0.405; outcome: inactive

Which result is listed for KLC2 #2?
total luciferase, z-score: 1.75; outcome: inactive

How did the screen score KLC2 #3?
total luciferase, z-score: -0.995; outcome: inactive

What did the screen give for PDIA6 #1?
total luciferase, z-score: -1.93; outcome: inactive

With PDIA6 #2, what was measured?
total luciferase, z-score: 0.137; outcome: inactive

For PDIA6 #3, how do the results read?
total luciferase, z-score: -0.0979; outcome: inactive

With PICK1 #1, what does the deposit list?
total luciferase, z-score: -1.35; outcome: inactive

How did the screen score PICK1 #2?
total luciferase, z-score: 0.604; outcome: inactive

With PICK1 #3, how do the results read?
total luciferase, z-score: -0.402; outcome: inactive

With TNF #1, what does the deposit list?
total luciferase, z-score: 6.36; outcome: active

Which result is listed for TNF #2?
total luciferase, z-score: -0.698; outcome: inactive

With TNF #3, how do the results read?
total luciferase, z-score: 0.112; outcome: inactive

Which result is listed for LYPLA1 #1?
total luciferase, z-score: -0.394; outcome: inactive

For LYPLA1 #2, what does the deposit list?
total luciferase, z-score: -1.17; outcome: inactive

What did the screen give for LYPLA1 #3?
total luciferase, z-score: 0.368; outcome: inactive

What is on record for GCH1 #1?
total luciferase, z-score: 0.337; outcome: inactive

Which result is listed for GCH1 #2?
total luciferase, z-score: -0.903; outcome: inactive

What did the screen give for GCH1 #3?
total luciferase, z-score: -0.934; outcome: inactive

What did the screen give for PRPF39 #1?
total luciferase, z-score: 2.37; outcome: inactive

How did the screen score PRPF39 #2?
total luciferase, z-score: 1.15; outcome: inactive

With PRPF39 #3, what was measured?
total luciferase, z-score: 0.184; outcome: inactive

How did the screen score LGR5 #1?
total luciferase, z-score: 1.54; outcome: inactive

What is on record for LGR5 #2?
total luciferase, z-score: -1.06; outcome: inactive

Which result is listed for LGR5 #3?
total luciferase, z-score: 0.347; outcome: inactive

For EXOC5 #1, what was measured?
total luciferase, z-score: 1.64; outcome: inactive

With EXOC5 #2, how do the results read?
total luciferase, z-score: -0.0556; outcome: inactive

For EXOC5 #3, what does the deposit list?
total luciferase, z-score: 1.99; outcome: inactive

Records listed so far whose target name begins with R or r:
ROCK1 #1 | total luciferase, z-score: -0.502; outcome: inactive
ROCK1 #2 | total luciferase, z-score: 0.0902; outcome: inactive
ROCK1 #3 | total luciferase, z-score: -0.795; outcome: inactive
